# Laboratory results taken from the supplement of paper PMC10689618.
# Counter-ions that a name gives are not always drawn. Some of the results follow. Single values are uncertain, as repeats are few or missing.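 Primary human fetal astrocytes engulfed labelled rat cortical synaptosomes, measured as a red/green ratio corrected for calcein live-cell signal and scaled to the plate median. Toxicity meant calcein falling over 30%; decreased phagocytosis meant below 70% of median above 5 µM.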
# Legend:
# Settings in all cases: 24 h
# Human fetal astrocytes [1] = assay: loss of total cells relative to no-compound high-control median (toxicity); higher = more toxic (fewer cells)
# Human fetal astrocytes [2] = assay: synaptosome phagocytosis (pHrodo/calcein intensity ratio) relative to plate median of data wells; higher = more phagocytosis
# Human fetal astrocytes [3] = assay: loss of total cells relative to no-compound high-control median (toxicity); higher = more toxic (fewer cells); remark: listed apart in the source
SMILES,loss of total cells (Human fetal astrocytes [1]; 1.39 µM) [%],loss of total cells (Human fetal astrocytes [1]; 2.78 µM) [%],loss of total cells (Human fetal astrocytes [1]; 5.56 µM) [%],loss of total cells (Human fetal astrocytes [1]; 11.11 µM) [%],loss of total cells (Human fetal astrocytes [1]; 22.22 µM) [%],synaptosome phagocytosis (Human fetal astrocytes [2]; 1.39 µM) [%],synaptosome phagocytosis (Human fetal astrocytes [2]; 2.78 µM) [%],synaptosome phagocytosis (Human fetal astrocytes [2]; 5.56 µM) [%],synaptosome phagocytosis (Human fetal astrocytes [2]; 11.11 µM) [%],synaptosome phagocytosis (Human fetal astrocytes [2]; 22.22 µM) [%],loss of total cells (Human fetal astrocytes [3]; 1.39 µM) [%],loss of total cells (Human fetal astrocytes [3]; 2.78 µM) [%],loss of total cells (Human fetal astrocytes [3]; 5.56 µM) [%],loss of total cells (Human fetal astrocytes [3]; 11.11 µM) [%],loss of total cells (Human fetal astrocytes [3]; 22.22 µM) [%]
NCC(O)c1cc(O)c(O)cc1F (stereo not given) [6-Fluoronorepinephrine hydrochloride],-8.1,-14.1,-37.3,-18.4,12.4,125,103,115,93.7,104,,,,,
O=C1C=CC(=O)C=C1 [p-Benzoquinone],-18,-5.4,-15.2,-4,8.6,88.1,75.1,90.2,83.4,102,,,,,
CC(C)(C)c1cc(C=C(C#N)C#N)cc(C(C)(C)C)c1O [Tyrphostin A9],-17.7,-10.5,1.7,53.3,32.9,109,96,79.8,45.4,35.8,,,,,
Cc1[nH]c2ccc(O)cc2c1CCN [2-Methyl-5-hydroxytryptamine maleate],-0.5,19.5,5.2,1.9,2.8,97.6,112,111,145,141,,,,,
CC(=O)Oc1ccc(Cl)c2cccnc12,,,,,,,,,,,-9.8,3.2,29.3,43.9,53.3
O=C(OC1CCN(CCCl)CC1)C(c1ccccc1)c1ccccc1 [4-Diphenylacetoxy-N-(2-chloroethyl)piperidine hydrochloride],5.4,-11.1,1.6,-1.3,-12.8,99.3,84.5,111,108,65.4,,,,,
C[C@H](Cc1ccc2c(c1)OC(C(=O)O)(C(=O)O)O2)NC[C@H](O)c1cccc(Cl)c1,-29.4,-14.4,6,-15.7,3.4,118,103,104,102,96.8,,,,,
NC(CP(=O)(O)O)C(=O)O (racemic) [(±)-2-Amino-3-phosphonopropionic acid],-13.9,2.7,-18.9,-21.1,-3.4,82.7,73.5,66.3,112,117,,,,,
O=C1NCN(c2ccccc2)C12CCN(CC1COc3ccccc3O1)CC2 (stereo not given) [Spiroxatrine],-11.5,-21.3,1.7,-10.3,-9.1,104,96.9,101,104,100,,,,,
C[C@H](N)CN1CCc2ccc(Br)cc21 [VER-3323 hemifumarate salt],-2.4,12.2,0.5,12.4,14,89.3,92.5,72,71.7,55.4,,,,,
CCCN1CCc2cccc3c2[C@H]1Cc1ccc(O)c(O)c1-3 [R(-)-Propylnorapomorphine hydrochloride],-3.8,-14.5,12.3,12.1,12,140,101,88.5,88,39.4,,,,,
COc1cc(C=C(C#N)C#N)cc(O)c1O [Tyrphostin AG 34],-17.7,-24.9,-4.5,-27.2,-42,74.4,101,103,129,109,,,,,
